Data on one molecule can be found in article PMC4177084 (Journal of Thyroid Research, 2014).

Holding throughout (test): Antiproliferation assay (WST-8)
What all share (assay type): cell-based

Test [1] relates to Nthy-ori 3-1 cells. The settings on record: Homo sapiens, 72 h; Nthy-ori 3-1 (normal thyroid), antiproliferative, 3 days.
The subject of test [2] is K1 cells. The settings on record: Homo sapiens, 72 h; K1 (DTC), antiproliferative, 3 days.
For test [3], the system named is RO82-W-1 cells. The settings on record: Homo sapiens, 72 h; RO82-W-1 (DTC), antiproliferative, 3 days.
Test [4] has as its system FTC-133 cells. The settings on record: Homo sapiens, 72 h; FTC-133 (DTC), antiproliferative, 3 days.
The subject of test [5] is FTC-236 cells. The settings on record: Homo sapiens, 72 h; FTC-236 (DTC), antiproliferative, 3 days.
The subject of test [6] is FTC-238 cells. The settings on record: Homo sapiens, 72 h; FTC-238 (DTC), antiproliferative, 3 days.

As for `Cc1ccc(NC(=O)c2ccc(CN3CCN(C)CC3)cc2)cc1Nc1nccc(-c2cccnc2)n1` [Glivec, imatinib], the IC50 (usually the midpoint of a concentration-inhibition curve) in test [1] was 20 µM; in test [2] it was 21 µM; in test [3], 21 µM; in test [4], 23 µM; in test [5], > 30 µM; in test [6] it was 24 µM.
